Where a SMILES comes first, the peptide text is derived from it. [ ]: non-standard residue; d: D form. The star is where a group is joined. X1 = COC1=CC(=O)N(C(=O)[C@@H](O*)C(C)C)[C@H]1Cc1ccccc1; NH(2-(2-pyridyl)ethyl) = c1ccc(CCN*)nc1; NH(4-Br-phenethyl) = Brc1ccc(CCN*)cc1; NMe2Val = CC(C)[C@@H](C(=O)*)N(C)C; X5 = O=[N+]([O-])c1ccc(CCN*)cc1; NH(thiazol-2-yl) = c1csc(N*)n1; NHPhenethyl = c1ccc(CCN*)cc1; NMeV = CN[C@H](C(=O)O)C(C)C; Hiv = CC(C)[C@H](O)C(=O)O; X2 = c1ccc2ncc(N*)cc2c1; X4 = COc1ccc(CCN*)cc1OC; X3 = c1ccc2sc(N*)nc2c1; X7 = Clc1cccc(CCN*)c1; NHBn = c1ccc(CN*)cc1; X6 = Fc1ccc(CCN*)cc1; NHPh = c1ccc(N*)cc1; X8 = Clc1ccccc1CCN*
Test system: not listed separately
Assay: general procedure: solution-phase peptide synthesis; DEPC
Details: coupling step

Going from “N-[(2S)-O-[(N,N-Dimethyl-valyl)-valyl-(N-methyl-valyl)-prolyl-prolyl]-2-hydroxyisovalerlyl]-2-phenethylamide” to “N-[(2S)-O-[[N-(Bezyloxycarbonyl)-valyl]-(N-methyl-valyl)-prolyl-prolyl]-2-hydroxyisovaleryl]-2-phenethylamide”, the step yield rises from 71% to 100%.

Test system: NCI 60-cell-line in vitro human tumor panel
Assay: not given
Details: GI50-Compare correlation with dolastatin 15
Protocol: All compounds synthesized were first evaluated for in vitro antitumor activity against murine P388 lymphocytic leukemia cells and against murine L1210 leukemia cells and human CA46 Burkitt lymphoma cells using techniques described by Hamel & Lin (see: HAMEL, E., and LIN, C. M., […], Interaction of combretastatin, a new plant-derived antimitotic agent, with tubulin, Biochemical Pharmacology, 32, 3864). The compounds were also evaluated in the NCI's human tumor 60-cell-line in intro primary screen as described by Monks et al. (see: MONKS, A., SCUDIERO, et al., 1991, New colorimetric cytotoxicity assay for anticancer drug screening, Journal of the National Cancer Institute, 83, 757). Data analyses were performed using methods described by Boyd and Paull (see: BOYD, M. R., et al., 1995, Some practical considerations and applications of the National Cancer Institute in vitro anticancer drug discovery screen, Drug Development Research, 34, 91). A tubulin polymerization inhibition assay was performed according to a modified version of the procedure used previously and described by Muzaffar et al. (see: MUZAFFAR, A., et al., 1990, Antitubulin effects of derivatives of 3-demethylthiocolchicine, methylthio esters of natural colchicinoids, and thioketones derived from thiocolchicine, Comparison with colchicine, Journal of Medicinal Chemistry, 33, 567) to evaluate the effects of dolastatin 15 on cellular microtubule assembly. The new assay for these compounds employed a drug-tubulin preincubation (15 min.) with 10 μM tubulin in 0.8 M glutamate at 30° C., followed by addition of GTP and incubation (20 min.) at 30° C., with tubulin polymerization monitored turbidimetrically in GILFORD recording spectrophotometers.

Compared with `COC1=CC(=O)N(C(=O)[C@@H](OC(=O)[C@@H]2CCCN2C(=O)[C@@H]2CCCN2C(=O)[C@H](C(C)C)N(C)C(=O)[C@@H](NC(=O)[C@H](C(C)C)N(C)C)C(C)C)C(C)C)[C@H]1Cc1ccccc1` [Compound 1, dolastatin 15] (NMe2Val-V[NMeV]PP-X1), `CC(C)[C@H](NC(=O)[C@H](C(C)C)N(C)C)C(=O)N(C)[C@H](C(=O)N1CCC[C@H]1C(=O)N1CCC[C@H]1C(=O)O[C@H](C(=O)NCc1ccccc1)C(C)C)C(C)C` [Compound 12b] (NMe2Val-V[NMeV]PP[Hiv]-NHBn) is lower in “Dolastatin 15 Compare Coefficient” value: 1.00 for the first, 0.74 for the second.

Going from `CC(C)[C@H](NC(=O)[C@H](C(C)C)N(C)C)C(=O)N(C)[C@H](C(=O)N1CCC[C@H]1C(=O)N1CCC[C@H]1C(=O)O[C@H](C(=O)Nc1ccccc1)C(C)C)C(C)C` [Compound 12a] (NMe2Val-V[NMeV]PP[Hiv]-NHPh) to `CC(C)[C@H](NC(=O)[C@H](C(C)C)N(C)C)C(=O)N(C)[C@H](C(=O)N1CCC[C@H]1C(=O)N1CCC[C@H]1C(=O)O[C@H](C(=O)NCCc1ccccc1)C(C)C)C(C)C` [Compound 12c, N-[(2S)-O-[(N,N-Dimethyl-valyl)-valyl-(N-methyl-valyl)-prolyl-prolyl]-2-hydroxyisovalerlyl]-2-phenethylamide] (NMe2Val-V[NMeV]PP[Hiv]-NHPhenethyl), the “Dolastatin 15 Compare Coefficient” value falls from 0.81 to 0.77.

Going from `CC(C)[C@H](NC(=O)[C@H](C(C)C)N(C)C)C(=O)N(C)[C@H](C(=O)N1CCC[C@H]1C(=O)N1CCC[C@H]1C(=O)O[C@H](C(=O)NCCc1ccc(F)cc1)C(C)C)C(C)C` [Compound 12d] (NMe2Val-V[NMeV]PP[Hiv]-X6) to `CC(C)[C@H](NC(=O)[C@H](C(C)C)N(C)C)C(=O)N(C)[C@H](C(=O)N1CCC[C@H]1C(=O)N1CCC[C@H]1C(=O)O[C@H](C(=O)NCCc1ccc(Br)cc1)C(C)C)C(C)C` [Compound 12h] (NMe2Val-V[NMeV]PP[Hiv]-{NH(4-Br-phenethyl)}), the “Dolastatin 15 Compare Coefficient” value rises from 0.77 to 0.78.

`CC(C)[C@H](NC(=O)[C@H](C(C)C)N(C)C)C(=O)N(C)[C@H](C(=O)N1CCC[C@H]1C(=O)N1CCC[C@H]1C(=O)O[C@H](C(=O)NCCc1cccc(Cl)c1)C(C)C)C(C)C` [Compound 12f] (NMe2Val-V[NMeV]PP[Hiv]-X7) and `CC(C)[C@H](NC(=O)[C@H](C(C)C)N(C)C)C(=O)N(C)[C@H](C(=O)N1CCC[C@H]1C(=O)N1CCC[C@H]1C(=O)O[C@H](C(=O)NCCc1ccccc1Cl)C(C)C)C(C)C` [Compound 12g] (NMe2Val-V[NMeV]PP[Hiv]-X8) are the same in “Dolastatin 15 Compare Coefficient” value: 0.78 for the first, 0.78 for the second.

First: CC(C)[C@H](NC(=O)[C@H](C(C)C)N(C)C)C(=O)N(C)[C@H](C(=O)N1CCC[C@H]1C(=O)N1CCC[C@H]1C(=O)O[C@H](C(=O)NCCc1ccc([N+](=O)[O-])cc1)C(C)C)C(C)C [Compound 12i] (NMe2Val-V[NMeV]PP[Hiv]-X5)
Second: CC(C)[C@H](NC(=O)[C@H](C(C)C)N(C)C)C(=O)N(C)[C@H](C(=O)N1CCC[C@H]1C(=O)N1CCC[C@H]1C(=O)O[C@H](C(=O)NCCc1ccccn1)C(C)C)C(C)C [Compound 12k] (NMe2Val-V[NMeV]PP[Hiv]-{NH(2-(2-pyridyl)ethyl)})
The “Dolastatin 15 Compare Coefficient” value of the first is lower: 0.79 for the first, 0.81 for the second.

Going from `COc1ccc(CCNC(=O)[C@@H](OC(=O)[C@@H]2CCCN2C(=O)[C@@H]2CCCN2C(=O)[C@H](C(C)C)N(C)C(=O)[C@@H](NC(=O)[C@H](C(C)C)N(C)C)C(C)C)C(C)C)cc1OC` [Compound 12j] (NMe2Val-V[NMeV]PP[Hiv]-X4) to `COC(=O)[C@H](Cc1ccccc1)NC(=O)[C@@H](OC(=O)[C@@H]1CCCN1C(=O)[C@@H]1CCCN1C(=O)[C@H](C(C)C)N(C)C(=O)[C@@H](NC(=O)[C@H](C(C)C)N(C)C)C(C)C)C(C)C` [Compound 12m] (NMe2Val-V[NMeV]PP[Hiv]F-OMe), the “Dolastatin 15 Compare Coefficient” value falls from 0.78 to 0.74.

Compared with `COC(=O)[C@H](CCSC)NC(=O)[C@@H](OC(=O)[C@@H]1CCCN1C(=O)[C@@H]1CCCN1C(=O)[C@H](C(C)C)N(C)C(=O)[C@@H](NC(=O)[C@H](C(C)C)N(C)C)C(C)C)C(C)C` [Compound 12n] (NMe2Val-V[NMeV]PP[Hiv]M-OMe), `COC(=O)[C@@H]1CCCN1C(=O)[C@@H](OC(=O)[C@@H]1CCCN1C(=O)[C@@H]1CCCN1C(=O)[C@H](C(C)C)N(C)C(=O)[C@@H](NC(=O)[C@H](C(C)C)N(C)C)C(C)C)C(C)C` [Compound 12o] (NMe2Val-V[NMeV]PP[Hiv]P-OMe) is lower in “Dolastatin 15 Compare Coefficient” value: 0.80 for the first, 0.71 for the second.

Compared with `CC(C)[C@H](NC(=O)[C@H](C(C)C)N(C)C)C(=O)N(C)[C@H](C(=O)N1CCC[C@H]1C(=O)N1CCC[C@H]1C(=O)O[C@H](C(=O)Nc1nccs1)C(C)C)C(C)C` [Compound 12p] (NMe2Val-V[NMeV]PP[Hiv]-{NH(thiazol-2-yl)}), `CC(C)[C@H](NC(=O)[C@H](C(C)C)N(C)C)C(=O)N(C)[C@H](C(=O)N1CCC[C@H]1C(=O)N1CCC[C@H]1C(=O)O[C@H](C(=O)Nc1nc2ccccc2s1)C(C)C)C(C)C` [Compound 12q] (NMe2Val-V[NMeV]PP[Hiv]-X3) is lower in “Dolastatin 15 Compare Coefficient” value: 0.79 for the first, 0.77 for the second.

With `CC(C)[C@H](NC(=O)[C@H](C(C)C)N(C)C)C(=O)N(C)[C@H](C(=O)N1CCC[C@H]1C(=O)N1CCC[C@H]1C(=O)O[C@H](C(=O)Nc1cnc2ccccc2c1)C(C)C)C(C)C` [Compound 12r] (NMe2Val-V[NMeV]PP[Hiv]-X2) the “Dolastatin 15 Compare Coefficient” value was 0.78.

— patent publication US6686445B1 (Arizona Board of Regents, acting for and on behalf of …, priority 1997, dated 2004)
